Test results as given in doi:10.1101/2021.02.22.432116 (bioRxiv, 2021).
These are yes or no findings as the source states them, for the method shown. Some results given as binding are weak or reduced against the parent protein; the word gives no strength.

B1: UBQLN2 248-576 (domain or fragment, human, UniProt Q9UHD9 248-576, looked up)
chain: MRNQDLALSNLESIPGGYNALRRMYTDIQEPMLNAAQEQFGGNPFASVGSSSSSGEGTQPSRTENRDPLPNPWAPPPATQSSATTSTTTSTGSGSGNSSSNATGNTVAAANYVASIFSTPGMQSLLQQITENPQLIQNMLSAPYMRSMMQSLSQNPDLAAQMMLNSPLFTANPQLQEQMRPQLPAFLQQMQNPDTLSAMSNPRAMQALMQIQQGLQTLATEAPGLIPSFTPGVGVGVLGTAIGPVGPVTPIGPIGPIVPFTPIGPIGPIGPTGPAAPPGSTGSGGPTGPTVSSAAPSETTSPTSESGPNQQFIQQMVQALAGANAPQLP
B2: UBQLN2 109-576 (domain or fragment, human, UniProt Q9UHD9 109-576, looked up)
chain: QGQSTQPSNAAGTNTTSASTPRSNSTPISTNSNPFGLGSLGGLAGLSSLGLSSTNFSELQSQMQQQLMASPEMMIQIMENPFVQSMLSNPDLMRQLIMANPQMQQLIQRNPEISHLLNNPDIMRQTLEIARNPAMMQEMMRNQDLALSNLESIPGGYNALRRMYTDIQEPMLNAAQEQFGGNPFASVGSSSSSGEGTQPSRTENRDPLPNPWAPPPATQSSATTSTTTSTGSGSGNSSSNATGNTVAAANYVASIFSTPGMQSLLQQITENPQLIQNMLSAPYMRSMMQSLSQNPDLAAQMMLNSPLFTANPQLQEQMRPQLPAFLQQMQNPDTLSAMSNPRAMQALMQIQQGLQTLATEAPGLIPSFTPGVGVGVLGTAIGPVGPVTPIGPIGPIVPFTPIGPIGPIGPTGPAAPPGSTGSGGPTGPTVSSAAPSETTSPTSESGPNQQFIQQMVQALAGANAPQLP
B3: UBQLN2 UBA domain (UBQLN2 571-624) (domain or fragment, human, UniProt Q9UHD9 571-624, looked up)
chain: NAPQLPNPEVRFQQQLEQLNAMGFLNREANLQALIATGGDINAAIERLLGSQPS
B4: UBQLN2 UBL domain (UBQLN2 1-107) (domain or fragment, human, UniProt Q9UHD9 1-107, looked up)
chain: MAENGESSGPPRPSRGPAAAQGSAAAPAEPKIIKVTVKTPKEKEEFAVPENSSVQQFKEAISKRFKSQTDQLVLIFAGKILKDQDTLIQHGIHDGLTVHLVIKSQNR

Experiments:
[1] = target: B3; test: NMR titration
UBQLN2 UBA L619A (human) = UBQLN2 UBA L619A (human) (UniProt Q9UHD9); test: NMR titration
[2] = target: B3; test: NMR, concentration dependence of chemical shifts
[3] = target: B4; test: NMR, concentration dependence of chemical shifts

binding [1] | Molecule | also measured
binds weakly | UBQLN2 379-576 (from UniProt Q9UHD9 379-576) (domain or fragment) | –
binds weakly | UBQLN2 178-576 (from UniProt Q9UHD9 178-576) (domain or fragment) | –
binds weakly | B1 | –
binds weakly | B2 | binding (UBQLN2 UBA L619A (human)): binds weakly
– | B3 | binding [2]: no binding (tested: 400 μM)
– | B4 | binding [3]: no binding (tested: 400 μM)
